At least one compound was matched to its structure with a doubt left.
Columns and labels:
Assay type in all cases: cell-based
SKOV3 cells = assay: EMT reversal assay (morphology, Western blot) in SKOV3; conditions: SKOV3, 2 μM for 3 days
Procedure: (§1) SKOV3, HEY and OVCAR-2 cells were maintained in RPMI (Invitrogen) supplemented with 10% fetal bovine serum (FBS, Thermo Scientific), 1 μg/mL puromycin (Sigma), 100 units/mL penicillin−100 units/mL streptomycin (1× pen-strep, Invitrogen) and 2 mM L-glutamine (Invitrogen). AZD0530 and BIBF-1120 were purchased from Selleck Chemicals and SYN|thesis Med Chem respectively. DMSO was used as a vehicle to dissolve both compounds. A stock concentration of 10 mM was prepared for both compounds and stored at −20° C. and aliquots were thawed at room temperature before use. Cells were grown up to 80% confluency in tissue culture flasks prior to cell plating. Cells were first trypsinized, concentrated and re-suspended to a density of 1×10^6 cell/mL in RPMI supplemented with 10% FBS. For each cell lines, 1×10^5 cells were plated onto 100 mm cell culture treated dishes (Nunc) for each condition. The cells were then allowed to attach to the culture dish surface and grow overnight in 37° C., 5% CO2 incubator. In drug conditions, the cells were then incubated with each of the compounds at a final concentration of 2 μM for 3 days to allow cell-cell contacts to establish in the dispersed culture. The medium was aspirated from the culture dishes and the cells were washed with PBS Ca^2+, Mg^2+ before they were snap-frozen with liquid nitrogen. Cells were lysed with RIPA buffer (Sigma) supplemented with protease inhibitor cocktail (Calbiochem) and phosphatase inhibitor cocktail (Roche). Protein concentration was measured using BCA (Pierce) protocol provided by the manufacturer. 8% polyacrylamide gels were used for the separation of proteins and transferred to PDVF membranes (Millipore). Membranes were blocked in 5% non-fat milk (Bio-rad) and incubated at 4 degree Celsius overnight with primary antibodies. E-cadherin antibody was purchased from BD laboratories, MMP13 antibody was purchased from Millipore and Tubulin was purchased from Sigma. […] The raw intensity of the protein bands were quantified using GeneTools software (Syngene).

OVCAR-2 cells = assay: EMT reversal assay (morphology, Western blot) in OVCAR-2; conditions: OVCAR-2, 2 μM for 3 days
Procedure: as §1

HEY cells = assay: EMT reversal assay (morphology, Western blot) in HEY; conditions: 2 μM for 3 days
Procedure: as §1

COC(=O)c1ccc2c(c1)NC(=O)/C2=C(\Nc1ccc(N(C)C(=O)CN2CCN(C)CC2)cc1)c1ccccc1 [BIBF-1120]
Morphology after treatment (SKOV3 cells; vs DMSO): restored the epithelioid-like morphology | E-cadherin protein levels (Western blot) (SKOV3 cells; vs vehicle): marked increase | MMP13 protein levels (Western blot) (SKOV3 cells; vs vehicle): reduced | Morphology after treatment (OVCAR-2 cells; vs DMSO): formed tighter cobblestone-like cell colonies | E-cadherin protein levels (Western blot) (OVCAR-2 cells; vs vehicle): marked increase | MMP13 protein levels (Western blot) (OVCAR-2 cells; vs vehicle): reduced | Morphology after treatment (HEY cells; vs DMSO): restored the epithelioid-like morphology | E-cadherin protein levels (Western blot) (HEY cells; vs vehicle): marked increase | MMP13 protein levels (Western blot) (HEY cells; vs vehicle): reduced
